Experimental data reported in the supplement of paper PMC10849652.
The other results are listed elsewhere or left out. Residues, ends and D or L forms follow the SMILES beside them. *: point of attachment. Cbz = O=C(OCc1ccccc1)*

Chains of the proteins cited; added tags and fusions are not shown. Lines headed by an entry give the natural chain unless they say otherwise; changes in a name come on top.
UniProt Q8NBJ9: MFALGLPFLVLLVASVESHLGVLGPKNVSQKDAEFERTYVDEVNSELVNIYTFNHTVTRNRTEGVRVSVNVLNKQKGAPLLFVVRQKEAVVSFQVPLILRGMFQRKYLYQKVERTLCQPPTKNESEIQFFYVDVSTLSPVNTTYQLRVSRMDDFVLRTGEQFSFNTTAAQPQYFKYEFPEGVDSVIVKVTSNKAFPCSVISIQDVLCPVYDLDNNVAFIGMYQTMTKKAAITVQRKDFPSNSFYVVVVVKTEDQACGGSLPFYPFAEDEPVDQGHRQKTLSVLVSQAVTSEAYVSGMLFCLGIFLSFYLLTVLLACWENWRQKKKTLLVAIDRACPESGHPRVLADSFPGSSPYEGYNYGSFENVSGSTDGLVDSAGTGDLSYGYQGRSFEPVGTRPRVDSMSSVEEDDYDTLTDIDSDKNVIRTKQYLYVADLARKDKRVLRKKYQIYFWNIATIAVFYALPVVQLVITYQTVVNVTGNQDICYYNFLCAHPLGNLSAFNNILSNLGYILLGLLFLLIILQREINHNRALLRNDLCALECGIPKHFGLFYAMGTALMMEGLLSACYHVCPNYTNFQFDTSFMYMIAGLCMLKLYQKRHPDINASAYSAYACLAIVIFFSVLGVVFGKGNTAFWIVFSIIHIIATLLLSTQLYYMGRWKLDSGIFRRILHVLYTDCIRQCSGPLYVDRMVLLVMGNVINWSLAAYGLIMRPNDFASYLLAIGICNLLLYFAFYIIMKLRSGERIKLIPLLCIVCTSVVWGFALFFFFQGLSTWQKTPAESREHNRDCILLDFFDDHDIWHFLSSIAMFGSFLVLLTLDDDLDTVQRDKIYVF
UniProt Q15019: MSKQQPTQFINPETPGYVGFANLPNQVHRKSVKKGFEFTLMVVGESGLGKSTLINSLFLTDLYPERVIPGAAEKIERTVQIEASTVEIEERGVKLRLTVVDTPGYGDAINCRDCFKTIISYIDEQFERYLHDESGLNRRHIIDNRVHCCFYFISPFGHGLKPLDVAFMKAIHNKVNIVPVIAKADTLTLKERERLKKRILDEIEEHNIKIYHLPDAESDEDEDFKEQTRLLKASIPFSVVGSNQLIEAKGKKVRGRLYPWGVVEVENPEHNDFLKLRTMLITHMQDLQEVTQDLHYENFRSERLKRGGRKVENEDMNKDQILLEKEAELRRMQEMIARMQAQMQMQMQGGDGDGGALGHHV
UniProt Q96EE3: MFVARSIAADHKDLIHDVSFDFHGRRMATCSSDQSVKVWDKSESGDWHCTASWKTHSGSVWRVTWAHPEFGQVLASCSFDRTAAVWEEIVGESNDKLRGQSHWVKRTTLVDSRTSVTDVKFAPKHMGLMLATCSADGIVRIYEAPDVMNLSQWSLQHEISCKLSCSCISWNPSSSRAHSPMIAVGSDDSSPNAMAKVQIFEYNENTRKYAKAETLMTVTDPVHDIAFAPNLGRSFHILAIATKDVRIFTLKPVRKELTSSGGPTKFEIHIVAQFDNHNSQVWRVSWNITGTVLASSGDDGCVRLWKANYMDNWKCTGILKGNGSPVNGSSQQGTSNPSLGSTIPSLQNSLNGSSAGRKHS
UniProt Q8IZQ5, whole entry, looked up: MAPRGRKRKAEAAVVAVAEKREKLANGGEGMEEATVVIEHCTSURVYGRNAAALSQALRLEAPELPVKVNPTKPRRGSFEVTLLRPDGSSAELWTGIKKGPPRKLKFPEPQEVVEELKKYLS
UniProt Q8IXJ6: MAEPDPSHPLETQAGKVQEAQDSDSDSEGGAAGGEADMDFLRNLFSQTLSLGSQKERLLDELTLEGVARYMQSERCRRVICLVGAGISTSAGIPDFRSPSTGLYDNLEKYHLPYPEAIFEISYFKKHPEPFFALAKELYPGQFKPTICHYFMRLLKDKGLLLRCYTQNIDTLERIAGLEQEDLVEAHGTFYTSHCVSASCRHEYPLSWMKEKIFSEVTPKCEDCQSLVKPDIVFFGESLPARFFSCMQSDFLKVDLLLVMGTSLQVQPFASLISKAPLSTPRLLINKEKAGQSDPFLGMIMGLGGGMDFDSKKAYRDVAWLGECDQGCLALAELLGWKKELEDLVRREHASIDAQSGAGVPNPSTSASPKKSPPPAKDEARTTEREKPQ
UniProt Q587I9: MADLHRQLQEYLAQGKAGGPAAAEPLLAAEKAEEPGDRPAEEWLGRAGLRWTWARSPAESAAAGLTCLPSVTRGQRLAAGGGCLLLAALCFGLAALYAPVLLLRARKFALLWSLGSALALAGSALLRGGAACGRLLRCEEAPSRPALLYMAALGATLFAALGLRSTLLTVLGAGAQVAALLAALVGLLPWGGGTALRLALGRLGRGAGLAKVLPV
UniProt Q9NP50: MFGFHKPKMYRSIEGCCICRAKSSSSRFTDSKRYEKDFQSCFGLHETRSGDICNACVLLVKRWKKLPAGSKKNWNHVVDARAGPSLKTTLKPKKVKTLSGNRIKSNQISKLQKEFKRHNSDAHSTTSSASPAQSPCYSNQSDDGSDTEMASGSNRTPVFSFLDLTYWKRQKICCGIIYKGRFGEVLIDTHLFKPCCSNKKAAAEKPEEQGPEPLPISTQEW
UniProt Q96BD8: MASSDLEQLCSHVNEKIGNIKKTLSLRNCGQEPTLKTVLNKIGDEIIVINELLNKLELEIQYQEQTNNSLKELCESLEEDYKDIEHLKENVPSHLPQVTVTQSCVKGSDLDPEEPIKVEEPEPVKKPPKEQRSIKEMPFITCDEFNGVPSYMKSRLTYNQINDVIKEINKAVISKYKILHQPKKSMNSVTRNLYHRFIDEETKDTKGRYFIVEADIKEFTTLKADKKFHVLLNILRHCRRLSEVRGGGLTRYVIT
UniProt Q9BRG2: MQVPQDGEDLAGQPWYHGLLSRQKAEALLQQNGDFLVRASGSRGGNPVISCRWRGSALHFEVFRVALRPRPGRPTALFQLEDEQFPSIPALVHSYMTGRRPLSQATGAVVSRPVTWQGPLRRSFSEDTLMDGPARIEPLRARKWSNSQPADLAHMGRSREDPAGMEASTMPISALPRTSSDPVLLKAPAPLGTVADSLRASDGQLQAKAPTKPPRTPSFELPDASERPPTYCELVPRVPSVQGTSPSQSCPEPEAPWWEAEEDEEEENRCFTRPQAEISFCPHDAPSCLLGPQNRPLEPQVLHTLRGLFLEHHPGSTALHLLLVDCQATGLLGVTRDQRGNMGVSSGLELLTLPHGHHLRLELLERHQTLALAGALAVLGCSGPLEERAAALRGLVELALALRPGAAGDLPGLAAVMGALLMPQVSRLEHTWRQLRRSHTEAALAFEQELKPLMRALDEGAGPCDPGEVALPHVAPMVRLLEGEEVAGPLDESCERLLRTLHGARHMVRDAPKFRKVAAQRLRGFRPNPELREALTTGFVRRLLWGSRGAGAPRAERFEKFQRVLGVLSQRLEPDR
UniProt Q9C0D9, whole entry, looked up: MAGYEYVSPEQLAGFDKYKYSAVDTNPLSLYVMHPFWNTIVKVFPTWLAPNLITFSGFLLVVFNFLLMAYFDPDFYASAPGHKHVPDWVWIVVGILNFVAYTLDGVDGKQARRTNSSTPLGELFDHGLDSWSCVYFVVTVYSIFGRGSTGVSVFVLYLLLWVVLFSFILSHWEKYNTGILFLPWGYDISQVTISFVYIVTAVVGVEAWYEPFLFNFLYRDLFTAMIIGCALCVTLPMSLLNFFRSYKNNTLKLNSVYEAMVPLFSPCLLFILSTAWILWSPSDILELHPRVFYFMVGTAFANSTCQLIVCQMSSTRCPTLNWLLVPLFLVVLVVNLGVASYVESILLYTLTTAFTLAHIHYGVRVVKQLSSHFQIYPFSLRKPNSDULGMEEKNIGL
UniProt O14796: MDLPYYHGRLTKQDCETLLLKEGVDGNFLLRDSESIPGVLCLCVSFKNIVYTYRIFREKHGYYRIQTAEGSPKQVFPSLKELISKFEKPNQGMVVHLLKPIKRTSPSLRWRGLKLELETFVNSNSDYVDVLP
UniProt Q2M3G4: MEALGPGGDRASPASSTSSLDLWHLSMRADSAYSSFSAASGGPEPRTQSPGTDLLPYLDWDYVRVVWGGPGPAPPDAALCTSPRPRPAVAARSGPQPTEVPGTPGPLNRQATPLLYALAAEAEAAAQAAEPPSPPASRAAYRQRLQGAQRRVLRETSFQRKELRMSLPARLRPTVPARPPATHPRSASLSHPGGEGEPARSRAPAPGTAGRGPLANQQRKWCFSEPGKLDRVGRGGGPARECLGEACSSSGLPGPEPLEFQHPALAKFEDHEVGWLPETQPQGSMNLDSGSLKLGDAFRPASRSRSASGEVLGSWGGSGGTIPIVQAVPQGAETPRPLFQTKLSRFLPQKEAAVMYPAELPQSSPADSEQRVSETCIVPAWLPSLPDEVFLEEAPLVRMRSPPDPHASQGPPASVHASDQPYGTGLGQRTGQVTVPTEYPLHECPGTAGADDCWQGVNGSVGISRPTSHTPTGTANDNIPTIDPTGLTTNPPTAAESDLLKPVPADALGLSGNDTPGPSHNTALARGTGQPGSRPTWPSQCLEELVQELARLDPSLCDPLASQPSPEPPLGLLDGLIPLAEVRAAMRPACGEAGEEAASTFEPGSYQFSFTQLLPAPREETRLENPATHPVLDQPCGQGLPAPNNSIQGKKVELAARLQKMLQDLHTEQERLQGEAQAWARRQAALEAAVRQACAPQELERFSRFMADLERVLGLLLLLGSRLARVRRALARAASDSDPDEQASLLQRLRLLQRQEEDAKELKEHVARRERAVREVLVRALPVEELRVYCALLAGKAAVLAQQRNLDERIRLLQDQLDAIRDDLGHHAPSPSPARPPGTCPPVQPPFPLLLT
UniProt Q9UPX8: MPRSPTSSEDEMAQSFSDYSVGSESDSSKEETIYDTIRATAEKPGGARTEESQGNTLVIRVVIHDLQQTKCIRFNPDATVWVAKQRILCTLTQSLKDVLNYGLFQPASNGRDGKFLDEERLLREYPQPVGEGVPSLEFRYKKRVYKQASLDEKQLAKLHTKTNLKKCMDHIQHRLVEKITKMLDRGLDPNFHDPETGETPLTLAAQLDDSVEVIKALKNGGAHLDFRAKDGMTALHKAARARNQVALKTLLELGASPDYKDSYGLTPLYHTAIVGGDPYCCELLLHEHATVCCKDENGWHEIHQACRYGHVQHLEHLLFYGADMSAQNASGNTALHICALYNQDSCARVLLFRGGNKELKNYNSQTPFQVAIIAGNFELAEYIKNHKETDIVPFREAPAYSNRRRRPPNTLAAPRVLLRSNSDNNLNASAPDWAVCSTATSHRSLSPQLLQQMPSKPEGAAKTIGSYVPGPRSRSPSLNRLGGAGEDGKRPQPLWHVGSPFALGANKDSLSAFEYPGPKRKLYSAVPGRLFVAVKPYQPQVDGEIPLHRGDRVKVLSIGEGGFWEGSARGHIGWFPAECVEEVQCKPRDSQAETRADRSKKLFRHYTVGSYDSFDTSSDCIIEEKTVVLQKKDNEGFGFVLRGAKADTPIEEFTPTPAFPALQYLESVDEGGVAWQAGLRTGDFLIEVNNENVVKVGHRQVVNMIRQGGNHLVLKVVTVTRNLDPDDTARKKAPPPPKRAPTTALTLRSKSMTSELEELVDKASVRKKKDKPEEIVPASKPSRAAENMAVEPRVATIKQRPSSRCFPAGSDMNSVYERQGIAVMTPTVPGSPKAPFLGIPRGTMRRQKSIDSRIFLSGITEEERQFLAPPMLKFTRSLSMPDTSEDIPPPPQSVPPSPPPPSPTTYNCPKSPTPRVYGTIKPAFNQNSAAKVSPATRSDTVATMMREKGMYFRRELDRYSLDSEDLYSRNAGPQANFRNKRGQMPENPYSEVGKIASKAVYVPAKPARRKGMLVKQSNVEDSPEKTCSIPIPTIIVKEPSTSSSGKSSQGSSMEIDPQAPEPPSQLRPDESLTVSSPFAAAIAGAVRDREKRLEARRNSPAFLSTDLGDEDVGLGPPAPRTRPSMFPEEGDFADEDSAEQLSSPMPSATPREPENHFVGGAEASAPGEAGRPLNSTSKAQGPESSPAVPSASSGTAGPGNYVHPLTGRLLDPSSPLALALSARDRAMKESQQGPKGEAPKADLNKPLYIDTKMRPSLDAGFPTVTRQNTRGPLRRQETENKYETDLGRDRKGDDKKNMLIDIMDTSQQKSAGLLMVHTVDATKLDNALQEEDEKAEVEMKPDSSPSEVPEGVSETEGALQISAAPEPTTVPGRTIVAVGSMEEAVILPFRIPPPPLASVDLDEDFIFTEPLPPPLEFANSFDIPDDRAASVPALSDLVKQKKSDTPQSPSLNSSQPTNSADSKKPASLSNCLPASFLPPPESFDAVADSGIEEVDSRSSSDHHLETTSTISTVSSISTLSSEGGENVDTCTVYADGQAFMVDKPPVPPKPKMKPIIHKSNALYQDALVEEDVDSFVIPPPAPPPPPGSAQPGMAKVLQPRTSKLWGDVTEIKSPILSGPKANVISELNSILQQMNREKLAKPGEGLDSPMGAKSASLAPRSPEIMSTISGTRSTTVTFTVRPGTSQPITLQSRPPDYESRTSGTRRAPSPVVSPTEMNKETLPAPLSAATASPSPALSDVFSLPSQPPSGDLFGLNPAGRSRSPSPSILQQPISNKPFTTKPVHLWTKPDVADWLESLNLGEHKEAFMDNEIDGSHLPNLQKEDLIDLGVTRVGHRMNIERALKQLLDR

Legend:
Assay in all cases: log2 fold change, soluble protein after heating vs DMSO (PISA); higher = thermal stabilisation; K562 cells, 10 uM, 30 min; active = over 0.2 and 3.5 SD of the protein, either way, in both replicates (recomputed)
[1] = compound: C1COCCN1CCN2C3=CC=CC=C3N=C2NC(=O)C4=CC(=CC=C4)[N+](=O)[O-] [IRAK-1-4 Inhibitor I]
Outline: (§1)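 Aliquots of K562 cells (2×10^6 cells/mL) treated with 10 μM compound for 30 min were heated for 3 min over 48°C-58°C. After pooling and extraction in PBS with 0.5% NP-40 at 4°C, soluble protein from a 21,000xg, 90 min spin was quantified by TMTpro 16plex LC-MS/MS with channel sums equalised. Thermal stability is expressed against control samples, from duplicates, as a log2 fold change.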

[2] = compound: C=CC(=O)N1CCC[C@@H](n2nc(-c3ccc(Oc4ccccc4)cc3)c3c(N)ncnc32)C1 [ibrutinib]
Outline: as §1

[3] = compound: CC(=O)c1cnc2ccc(-c3cc(Cl)c(O)c(Cl)c3)nc2c1N[C@H]1CC[C@H](CN(C)C)CC1
Outline: as §1

[4] = compound: CC(C)(C)Cn1c(N)nc2ccc(-c3[nH]c(C(C)(C)C)nc3-c3ccc(F)cc3)nc21 [ralimetinib]
Outline: as §1

[5] = compound: CC(C)(O)CC(=O)NCCn1ccc2ncnc(Nc3ccc(Oc4cccc(C(F)(F)F)c4)c(Cl)c3)c21
Outline: as §1

[6] = compound: CC(C)C1=C2N=C(C=C(N2N=C1)NCC3=CC=CC=C3)NCCCCCCN
Outline: as §1

[7] = compound: CC(C)C[C@@H](C=O)NC(=O)[C@H](CC(C)C)NC(=O)[C@H](CC(C)C)NC(=O)OCc1ccccc1
Outline: as §1

[8] = compound: CC(C)N(C[C@H]1O[C@@H](n2cnc3c(N)ncnc32)[C@H](O)[C@@H]1O)[C@H]1C[C@@H](CCc2nc3cc(C(C)(C)C)ccc3[nH]2)C1 [pinometostat]
Outline: as §1

[9] = compound: CC1=C(C2=C(C=C1)C(=O)C3=CC=CC=C3N2CCCN)C
Outline: as §1

[10] = compound: CC1=C(C(CC(=O)N1)C2=CC=C(C=C2)C(F)(F)F)C(=O)NC3=C(C=C4C(=C3)C=NN4)F
Outline: as §1

Measured: log2 fold change

SIDT2 isoform 2 (UniProt Q8NBJ9)
active: [6] -0.353
inactive: [1] -0.017 | [2] 0.123 | [3] -0.039 | [4] -0.143 | [5] -0.021 | [7] 0 | [8] 0.271 | [9] 0.005

SEPTIN2 isoform 2 (UniProt Q15019)
inactive: [1] 0.024 | [2] -0.004 | [3] 0.012 | [4] -0.018 | [5] 0.009 | [6] 0.054 | [7] 0.008 | [8] -0.033 | [10] 0.016 | [9] 0.004

SESN2 (UniProt P58004)
inactive: [1] -0.143 | [2] 0.034 | [3] 0 | [4] 0.21 | [5] -0.049 | [6] -0.407 | [7] 0.055 | [8] 0.081 | [9] -0.017

SGPL1 (UniProt O95470)
inactive: [1] -0.05 | [2] -0.018 | [3] -0.045 | [4] 0.159 | [5] 0.017 | [6] 0.06 | [7] 0.002 | [8] 0.1 | [9] 0.146

SERPINB1 (UniProt P30740)
inactive: [1] 0.038 | [2] -0.014 | [3] -0.018 | [4] -0.016 | [5] -0.019 | [6] 0.022 | [7] -0.014 | [8] -0.024 | [10] -0.011 | [9] 0.013

SFXN2 (UniProt Q96NB2)
inactive: [1] 0.043 | [2] 0.031 | [3] -0.012 | [4] -0.002 | [5] -0.039 | [6] -0.042 | [7] 0.053 | [8] -0.041 | [10] -0.005 | [9] 0.115

SEH1L isoform 1 (UniProt Q96EE3)
inactive: [1] 0.028 | [2] -0.021 | [3] -0.056 | [4] -0.014 | [5] 0.03 | [6] -0.019 | [7] -0.026 | [8] 0.011 | [9] 0

SELENOH (UniProt Q8IZQ5)
inactive: [1] -0.018 | [2] -0.039 | [3] 0.13 | [4] 0.086 | [5] -0.017 | [6] 0.059 | [7] -0.012 | [8] -0.012 | [9] 0.057

SIRT2 (UniProt Q8IXJ6)
inactive: [1] 0.047 | [2] -0.003 | [3] -0.003 | [4] -0.023 | [5] 0.041 | [6] -0.033 | [7] 0.028 | [8] -0.002 | [9] -0.022

SFXN5 (UniProt Q8TD22)
inactive: [1] 0.225 | [2] -0.048 | [3] -0.013 | [4] -0.001 | [5] -0.175 | [6] -0.083 | [7] 0.187 | [8] 0.03 | [9] 0.09

SFT2D3 (UniProt Q587I9)
inactive: [1] -0.028 | [2] -0.023 | [4] 0.204 | [5] -0.016 | [6] -0.036 | [7] -0.112 | [8] -0.073 | [10] 0.048 | [9] -0.007

SINHCAF (UniProt Q9NP50)
inactive: [1] 0.884 | [5] 1.2 | [8] -0.739

SIRT3 (UniProt Q9NTG7)
inactive: [1] -0.001 | [3] -0.19 | [4] 0.062 | [6] 0.045 | [7] 0.135 | [8] 0.142

SKA1 (UniProt Q96BD8)
inactive: [1] -0.146 | [4] 0.071 | [5] 0.081 | [7] 0.127 | [8] 0.294 | [10] 0.246

SH2D3A (UniProt Q9BRG2)
inactive: [1] 0.088 | [4] -0.04 | [6] -0.009 | [7] -0.089 | [8] 0.047 | [10] 0.045

SIGIRR (UniProt H0YDR5)
inactive: [1] -0.151 | [6] 0.13 | [8] 0.635

SIK3 (UniProt H0Y4E8)
inactive: [1] 0.043 | [4] 0.135 | [6] 0.186 | [7] -0.167 | [8] -0.036 | [9] -0.124
active: [3] -0.425

SFT2D2 (UniProt O95562)
inactive: [2] 0.053 | [3] -0.07 | [4] 0.055 | [5] 0.038 | [6] -0.032 | [7] -0.144 | [10] -0.049 | [9] -0.076

SELENOI (UniProt Q9C0D9)
inactive: [1] -0.234 | [4] -0.161 | [7] -0.066 | [8] 0.166

SELENOP (UniProt P49908)
inactive: [1] -0.005 | [2] 0.117 | [6] 0.078 | [8] -0.034

SF3B5 (UniProt Q9BWJ5)
inactive: [1] 0.055 | [2] 0.127 | [3] -0.067 | [5] -0.224 | [6] 0.118 | [8] 0.045 | [9] 0.156

SHFL (UniProt Q9NUL5)
inactive: [2] 0.136 | [3] -0.334 | [4] 0.077 | [5] 0.088 | [7] -0.066 | [10] 0.01 | [9] 0.938

Looked up one by one from the entries so far (three):
SIK3 (UniProt H0Y4E8)
inactive: [1] 0.043 | [4] 0.135 | [6] 0.186 | [7] -0.167 | [8] -0.036 | [9] -0.124
active: [3] -0.425

SFT2D2 (UniProt O95562)
inactive: [2] 0.053 | [3] -0.07 | [4] 0.055 | [5] 0.038 | [6] -0.032 | [7] -0.144 | [10] -0.049 | [9] -0.076

SHFL (UniProt Q9NUL5)
inactive: [2] 0.136 | [3] -0.334 | [4] 0.077 | [5] 0.088 | [7] -0.066 | [10] 0.01 | [9] 0.938

(next part)

SIAH1 isoform 2 (UniProt Q8IUQ4)
inactive: [1] 0.179 | [2] -0.078 | [3] 0.045 | [5] -0.094 | [6] 0.008 | [8] -0.141 | [9] 0.016

SERPINB6, A0A2R8Y7E5
inactive: [1] -0.079 | [2] 0.02 | [5] -0.229 | [8] -0.04

SGPP1 (UniProt Q9BX95)
inactive: [1] 0.02 | [2] 0.089 | [3] 0.04 | [5] -0.215 | [6] -0.229 | [8] -0.027 | [10] -0.028 | [9] -0.184

SIAH2 (UniProt O43255)
inactive: [1] 0.046 | [2] 0.025 | [3] -0.056 | [4] 0.004 | [7] 0.038 | [8] -0.135 | [10] 0.011

SF1 (UniProt H7C0N4)
inactive: [1] -0.019 | [2] 0.148 | [3] -0.046 | [4] -0.033 | [7] 0.258 | [8] -0.049 | [10] -0.04 | [9] 0.16

SIX5 (UniProt Q8N196)
inactive: [1] 0.084 | [2] 0.128 | [3] -0.105 | [4] -0.057 | [7] -0.013 | [8] -0.102

SH2D1B (UniProt O14796)
active: [3] -1.57
inactive: [1] 0.202 | [4] 0.042 | [5] -0.052 | [6] 0.095 | [7] 0.005 | [8] 0.027 | [9] -0.004

SHROOM1 (UniProt Q2M3G4)
inactive: [2] 0.173 | [3] -0.234 | [4] -0.027 | [5] -0.142 | [6] -0.097 | [7] 0.209

SHROOM2 (UniProt Q13796)
inactive: [1] 0.236 | [2] 0.065 | [3] 0.137 | [5] 0.009 | [6] 0.155 | [8] -0.182 | [9] 0.072

SHANK2 isoform 3 (UniProt Q9UPX8)
inactive: [1] -0.238 | [5] 0.038 | [8] -0.009 | [10] -0.122

SH3BGR (UniProt P55822)
inactive: [2] -0.049 | [3] 0.038 | [5] -0.24 | [6] -0.102 | [10] -0.068
